# Whole data set: some 33,000 sequences, median “E-score (-0.5 to 0.5)” near -0.016, cut for the highest 2% near 0.3. Some of the results follow.
# Target: T1, Yer184c (UniProt P39961)
# T1 sequence: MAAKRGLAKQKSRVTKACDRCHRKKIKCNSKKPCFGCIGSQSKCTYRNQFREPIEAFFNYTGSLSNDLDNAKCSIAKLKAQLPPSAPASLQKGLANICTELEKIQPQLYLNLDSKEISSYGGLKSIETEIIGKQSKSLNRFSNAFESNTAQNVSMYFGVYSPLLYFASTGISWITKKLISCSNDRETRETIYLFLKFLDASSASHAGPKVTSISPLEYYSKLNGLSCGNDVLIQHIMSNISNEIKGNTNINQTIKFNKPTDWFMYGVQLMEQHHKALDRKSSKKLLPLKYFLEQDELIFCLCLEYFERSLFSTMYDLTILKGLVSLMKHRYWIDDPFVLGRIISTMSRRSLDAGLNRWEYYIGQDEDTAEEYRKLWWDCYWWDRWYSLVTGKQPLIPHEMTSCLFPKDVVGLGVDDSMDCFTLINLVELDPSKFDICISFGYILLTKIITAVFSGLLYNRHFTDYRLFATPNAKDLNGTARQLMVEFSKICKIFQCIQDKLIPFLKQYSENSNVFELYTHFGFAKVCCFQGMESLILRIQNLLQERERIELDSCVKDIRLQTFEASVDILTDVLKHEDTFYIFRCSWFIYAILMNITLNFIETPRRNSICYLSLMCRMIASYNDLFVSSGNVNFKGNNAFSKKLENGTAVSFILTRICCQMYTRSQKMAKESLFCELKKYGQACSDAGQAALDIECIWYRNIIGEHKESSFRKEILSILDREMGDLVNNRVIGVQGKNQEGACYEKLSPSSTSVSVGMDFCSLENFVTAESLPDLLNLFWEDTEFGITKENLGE
# Experiment: PBM E-score (8-mer binding enrichment) (E-score (-0.5 to 0.5)); higher = stronger / more preferred TF binding
# Details: protein concentration: 100 nM; construct: GST-full length
# Procedure, shortened: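 Using PURExpress in vitro transcription/translation, GST-tagged yeast transcription factors were made in full-length or DNA-binding-domain form. These were applied at about 100-200 nM to double-stranded universal all-10-mer Agilent arrays, and bound protein was detected with fluorescent anti-GST. Scans were normalised with masliner before the Universal PBM Analysis Suite assigned E-scores to ungapped eight-base words pooled with their reverse complements.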
row,Sequence,PBM E-score
1,GCTTTAAA,0.00521
2,GATAATAC,0.136
3,AATGTAAG,0.0266
4,ATACATAT,0.255
5,ACGCAGGA,-0.247
6,ACCCAATA,-0.0358
7,AGCGCTGC,-0.161
8,CAACACAA,0.112
9,ATAACATG,0.0311
10,GCGCGGCC,0.177
11,ACGCCCTG,-0.0895
12,CATGCGCA,-0.111
13,AATGGGCT,-0.237
14,TGGGGTAA,-0.049
15,CCGACGCA,-0.0732
16,AACCGGAA,0.34
17,GTCAACTA,0.0392
18,GGCGTTAA,-0.0949
19,ACAGCGGT,-0.052
20,ATCACGGA,0.307
21,CCGTGTCG,0.0289
22,ACAGAGCC,-0.129
23,CACCAATC,-0.0658
24,ACGAGTCT,-0.265
25,CTGGCAGA,0.0946

row,Sequence,PBM E-score
1,CTACGTCA,-0.211
2,CACGTTAG,-0.271
3,CCAAAGCG,-0.0768
4,ATATTGGG,-0.0376
5,AGTTAACT,0.0183
6,CATGTCAA,-0.0624
7,GAATCAGC,-0.0382
8,AATGACCC,-0.341
9,AGAGCGCG,-0.0905
10,ATCTCAAC,0.192
11,CCCTATTA,-0.0889
12,ACAGGGTG,-0.253
13,CAGGCCAA,-0.0877
14,CATCGAAA,0.0496
15,ACTCGATA,0.0187
16,AATGTCGG,0.12
17,AATACGCG,0.0762
18,CCCCTATA,-0.155
19,TATCATCA,0.0334
20,AGGGGGCA,-0.298
21,CGATCCCA,-0.0644
22,AAGAAACT,-0.0235
23,ATCTGTTA,0.148
24,ATTATGGC,0.0693
25,GTGGTATA,0.0432

row,Sequence,PBM E-score
1,CAAAATGA,0.0065
2,AACATAAT,0.17
3,CCTTATCC,-0.16
4,CCCCCTGA,-0.435
5,ACGAGCAA,-0.189
6,CAATGAAC,0.0794
7,ACACCACG,-0.25
8,CTATCGTA,-0.0389
9,AGATCCTC,-0.0839
10,CAATTTTC,0.0626
11,ACCATGAG,-0.193
12,AGCTGGAG,-0.173
13,ATGCGCCC,-0.0509
14,ATCGTTTA,0.166
15,CGTTGGGA,-0.167
16,ATGAAGGG,-0.197
17,GACAGTAA,-0.0124
18,TGAATAAA,0.0702
19,CTACGGAG,0.0895
20,GCCAGACC,-0.0552
21,CGGGATAG,0.102
22,CAAGCTAC,-0.0539
23,AGGGCTTG,-0.126
24,CGCCGAAG,0.328
25,ACCACTGG,-0.0163

row,Sequence,PBM E-score
1,GCCCAGGC,-0.251
2,ACTGCAAT,0.135
3,AGCAGCAG,-0.0629
4,ACTCGCGA,0.139
5,GACGCGCC,-0.125
6,CGACCACA,-0.136
7,ACAATTCC,0.0174
8,ACAACGAA,0.164
9,GTGGGATA,-0.0235
10,ATCAGTGG,-0.0823
11,ACATTGGG,-0.175
12,AGAGGGCC,-0.164
13,AAATTGGG,-0.0133
14,ATTCTACA,0.132
15,TACTTAGA,-0.0915
16,ACCAGGCA,-0.283
17,CTAACGCC,-0.0485
18,AATATGGC,-0.0156
19,AGTGCACA,0.0599
20,CAAAATGC,0.0794
21,AGCCTGTC,-0.209
22,AGGGTTAT,-0.187
23,CCATGAGA,0.0649
24,GCTATGTA,-0.122
25,ATGTTTTA,0.00138

row,Sequence,PBM E-score
1,AGCATCTG,-0.111
2,TAACCTGA,-0.0232
3,AGAGAGCC,-0.0767
4,CTTTTATA,0.131
5,TACAACCA,0.108
6,ACGAATCC,0.115
7,AGCTCTCC,-0.134
8,CCGCAGTC,-0.116
9,CCTTACAG,-0.124
10,ACGGACGA,0.237
11,TTGATCAA,0.147
12,CAGTAACA,0.0633
13,CCAAGCCC,-0.296
14,GTTGCGGA,0.193
15,CCTTTAGC,-0.0615
16,CATACCGC,-0.0504
17,AGCTCGTG,0.117
18,GCCTCCAC,-0.257
19,ACCGATCC,0.111
20,CTGCACGA,-0.136
21,AAACGTTT,0.299
22,TGGGGGAA,-0.368
23,GTCACCAA,-0.141
24,AATGGGGA,-0.168
25,CCACGGTA,0.104

row,Sequence,PBM E-score
1,ACGCGCTG,-0.11
2,GACACAAC,-0.0398
3,GCATATGA,0.0153
4,AAACAGTA,0.0452
5,AATGGGCG,-0.185
6,AAGAGTTA,-0.0159
7,CGAGCCTA,-0.134
8,GAAACCAA,0.236
9,AAGCGCGC,0.147
10,ACGTGCTG,-0.0775
11,ATAGGGCC,-0.0824
12,TCCTAGAA,0.0667
13,CCGAGTTC,0.233
14,TCCGGGCA,0.261
15,CCTCGATC,-0.0397
16,CGATACGC,-0.012
17,AGTGTTCA,0.0597
18,CTGTGCCC,-0.106
19,GAGGAGAC,-0.252
20,ACCCGTCC,-0.149
21,ATATGACC,-0.0398
22,CTTCATGA,0.0611
23,ACGCACCC,-0.223
24,ATCAGAAT,0.0176
25,CTCTGTAC,-0.0422

# Nothing new here: entries from further up.
row,Sequence,PBM E-score
6,AAGAGTTA,-0.0159
7,CGAGCCTA,-0.134
8,GAAACCAA,0.236
9,AAGCGCGC,0.147
10,ACGTGCTG,-0.0775
11,ATAGGGCC,-0.0824

# Following part.

row,Sequence,PBM E-score
1,CTACGTTC,-0.0346
2,AGCCCGCC,-0.0365
3,GAACGCTC,-0.239
4,AGCAATCA,0.0916
5,GAAATACC,0.18
6,GAAGCCCC,-0.281
7,AGGCAGGG,-0.255
8,AGGAGAGG,-0.286
9,CAGCGAGC,0.102
10,ATAGGAAT,-0.0438
11,CAGCATGG,-0.157
12,TCCCTCGA,-0.183
13,CGAACGCG,0.0642
14,GCAACTAA,0.181
15,CGTTTCGC,0.118
16,AGGCCTCA,-0.185
17,CAAGAAGC,0.118
18,AGTAAACA,0.0707
19,GTCGTCTA,-0.108
20,CCTTCATA,0.0508
21,GCCCCGCC,0.0205
22,ACTAACGA,0.00902
23,CGTCGTGA,-0.152
24,AGGGGACT,-0.17
25,GTGCGCAA,-0.0502

row,Sequence,PBM E-score
1,GAGTTAGC,-0.0328
2,ACCTTTGG,-0.372
3,ATTTTTGG,-0.0313
4,CACACCCA,-0.135
5,ACACTAAC,0.00821
6,ACTAGTGC,0.0751
7,CGATAGAC,-0.0952
8,GTCTCCAA,0.0462
9,CCGACGTA,-0.0133
10,GTACTAAA,0.162
11,CCTCCTAC,-0.0884
12,CCCCGGAC,0.0445
13,CACCCGGA,0.237
14,CTTACAGC,-0.0235
15,CCACTCAG,-0.158
16,CAACGGAG,0.0267
17,CTTACTAC,-0.0588
18,ATCGCCCC,-0.235
19,CAGGACTG,-0.223
20,GGAGGGAC,-0.0771
21,CGCGTACA,-0.0798
22,AGTGCGTC,-0.162
23,GACCATAA,0.0623
24,TAAAGGAA,-0.00126
25,CGTAGACC,-0.171

# Fetched one by one from the list above, three records:
row,Sequence,PBM E-score
2,AACATAAT,0.17
23,CGTCGTGA,-0.152
7,AGGCAGGG,-0.255

# In another format: results already given
row	Sequence	PBM E-score
13	CACCCGGA	0.237
14	CTTACAGC	-0.0235

# (cont.)

row,Sequence,PBM E-score
1,GCTCACGA,-0.15
2,GATTGTCC,0.156
3,CCGCCGGA,0.316
4,AACCAAGC,-0.0189
5,ATGCGTGA,0.0231
6,ATGCTGTC,-0.109
7,AACCACGC,-0.0516
8,ACAGTTAC,0.027
9,CTATGGTA,-0.0782
10,CGGTCGGA,0.193
11,ACAATATC,0.0651
12,CCTGCACG,-0.153
13,AAGGTAGC,-0.154
14,ATGCTACA,-0.0714
15,CTATTGAC,-0.0106
16,CGTAAGAA,0.111
17,AGAGCTGC,-0.203
18,AGTATAGC,-0.0324
19,GATAATCC,0.0339
